# According to patent publication US20170121405A1:
# The chains behind the UniProt entries cited, without tags or fusion partners. Residues count along the entry.
# UniProt P15328, residues 25-234: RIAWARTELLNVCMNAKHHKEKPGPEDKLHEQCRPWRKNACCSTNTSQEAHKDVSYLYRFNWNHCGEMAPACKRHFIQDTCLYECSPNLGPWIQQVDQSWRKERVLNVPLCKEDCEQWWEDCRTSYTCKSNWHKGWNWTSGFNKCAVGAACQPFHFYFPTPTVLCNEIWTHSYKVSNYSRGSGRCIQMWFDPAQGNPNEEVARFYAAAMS
# Results are given in words; binding and its absence hold for the method and conditions named. Some binding calls cover weakened binding; strength is not graded here.
# Target: Folate receptor alpha (UniProt P15328)
# Test: indirect IHC on FFPE tissue sections, 2.5 µg/ml 26B3, HRP-polymer detection
binder,measurement,value
"Monoclonal antibody 26B3 (antibody, V domains shown) VH: GPELVKPGASVKISCKASDYSFTGYFMNWVMQSHGKSLEWIGRIFPYNGDTFYNQKFKGRATLTVDKSSSTAHMELRSLASEDSAVYFCARGTHYFDYWGQGTTLTVSS VL: PASLSASVGETVTITCRTSENIFSYLAWYQQKQGISPQLLVYNAKTLAEGVPSRFSGSGSGTQFSLKINSLQPEDFGSYYCQHHYAFPWTFGGGSKLEIKR",binding,binds
